Structures can show the parent of a compound that is named as a salt.
How the values were obtained:
[1] = tested on: Sco-induced amnesia animal model; assay: Inhibitory avoidance learning task, scopolamine-induced memory deficits; format: in vivo, Sprague-Dawley rats; settings: scopolamine 1.5 mg/kg/day i.p. alone; 7 days after footshock; vs control; P<0.05
From the text: Rats were intraperitoneally injected with Sco, C5 peptide and Sco (C5+Sco group), C6 peptide and Sco (C6+Sco group), and DMSO/PBS (negative control group), respectively, as described in Example 5.
The apparatus consisted of a trough-shaped alley divided by a sliding door that separates an illuminated safety compartment and a dark compartment. A shock generator that produced current was connected to the floor of the dark compartment (UGO Basile, Comerio VA, Italy). The behavioral task, including the training and testing procedures, was recorded between 8:00 AM and 6:00 PM. Before the experiment, the rats were habituated in a dim room for 1 hour so that they could adjust to the environment. In the training phase, a rat was placed at the far end of the illuminated compartment facing away from the door. As the rat turned around, the door shut, and a 1 mA/s footshock was given twice. The rat was then removed from the alley and returned to its cage. At different times after training (1 day and 7 days later), the retention test was given. Rats were tested after 1 day and 7 days in the same manner as in the training, but without receiving a shock. Testing was terminated either when the rat entered the dark chamber or after 600 seconds without entry. […]

[2] = tested on: Sco-induced amnesia animal model; assay: Step-down passive avoidance test, scopolamine-induced memory deficits; format: in vivo, Sprague-Dawley rats; settings: scopolamine 1.5 mg/kg/day alone; 1 day after footshock; vs control; P<0.05
Procedure: Rats were intraperitoneally injected with Sco, C5 peptide and Sco (C5+Sco group), C6 peptide and Sco (C6+Sco group), and DMSO/PBS (negative control group), respectively, as described in Example 6.
Animals were familiar to the instrument 24 hours before training. Next day rats placed on the elevated platform situated in the center of the floor of the passive avoidance test box and the latency to stepping down recorded. On the third day of the experiment immediately after stepping down, animals received mild electric shock (3V, 3 seconds duration, D.C.) through the grid floor and then returned to their home cages. On the following day (as 24 hours retention interval) rats placed on the platform again while no electric shock was given to them. Latency to step down recorded. If the rat remained on the platform for the 5 minutes, it assigned a maximum score of 300 seconds.
Both C5 peptide and C6 peptide ameliorate scopolamine-induced memory deficits. Rats were randomly divided into negative control group, Scopolamine only group, (C5+Sco) group and (C6+Sco) group, and rats in the four groups were injected with vehicle (negative control group and scopolamine only group), C5 peptide (54 μg/kg/day, C5+Sco group), and C6 peptide (5.4 μg/kg/day, C6+Sco group), respectively, for 14 consecutive days. […]

## CN1[C@@H]2C[C@@H](OC(=O)[C@H](CO)c3ccccc3)C[C@H]1[C@@H]1O[C@@H]12 [Sco, Scopolamine hydrochloride]
[1]
  retention time in the illuminated chamber: less retention time in the illuminated chamber
[2]
  retention time on the stage: less retention time on the stage
